Data published in the supplement of paper PMC10338343.
± gives the standard deviation. Only a part is listed here, and it is no random draw. Many of these values have a large error. The list shows a part of the results.

What was measured:
[1] = tested on: MILI (PIWIL2) piRISC loaded with L1MC piRNA (26 nt); experiment: pre-steady-state target cleavage rate (min^-1); higher = faster piRNA-guided slicing of the target; details: guide: L1MC piRNA 5'p-UAACUAAAUACUAUGCAAGCUGUAGG
How it was run: (§1)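 Cleave-'n-Seq: 1 nM active affinity-purified piRISC with one synthetic guide and 0.1 nM transcribed, DNA-blocked target RNA library were mixed, with or without 500 nM GTSF1 partner protein, in HEPES–potassium acetate buffer at 33 °C for 0–8 or 0–960 min. Uncleaved targets were sequenced and normalised to depth and to weakly complementary targets, three trials were pooled, and k3 was capped at 0.0001 min^-1. The pre-steady-state cleavage rate was fitted […].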

[2] = tested on: MIWI (PIWIL1) piRISC loaded with L1MC piRNA (30 nt); experiment: as above; details: guide: L1MC piRNA 5'p-UAACUAAAUACUAUGCAAGCUGUAGGUCCU; auxiliary factor: none (no GTSF1)
How it was run: as §1

[3] = tested on: EfPiwi piRISC loaded with L1MC piRNA (26 nt); experiment: pre-steady-state target cleavage rate (min^-1); guide: L1MC piRNA 5'p-UAACUAAAUACUAUGCAAGCUGUAGG; MIWI and MILI are mouse PIWI proteins and EfPiwi is from a freshwater sponge; tags in brackets are library labels; higher = faster piRNA-guided slicing of the target
How it was run: as §1

[4] = auxiliary factor: 500 nM mouse GTSF1
[5] = auxiliary factor: none (no GTSF1)
[6] = auxiliary factor: 500 nM Ephydatia muelleri Gtsf1
[7] = auxiliary factor: none (no Gtsf1)

Sequence	pre-steady-state target cleavage rate [1, 4]	pre-steady-state target cleavage rate [1, 5]	pre-steady-state target cleavage rate [2]	pre-steady-state target cleavage rate [3, 6]	pre-steady-state target cleavage rate [3, 7]
UCCUGGAACAGCUUGCUAUAGUAUUUAGUUA	0.028 ± 0.0077	0.000838 ± 0.0069	0.00258 ± 0.0033	0.00682 ± 0.0023	
UCCUGGAUCAGCUUGCUAUGUAUUUUCAAA	0.00137 ± 0.0079	0.000629 ± 0.0076	0.000642 ± 0.01	0.000517 ± 0.01	
UCCUGCUACAGCAACCAUAGUAUUUAGUUA	0.305 ± 0.04	0.00278 ± 0.0039	0.000985 ± 0.007	0.000802 ± 0.0057	
UCCUGCUACAGCUUGCAUAGGUAUUUAGUUA	0.00815 ± 0.0047	0.00421 ± 0.0024	0.00125 ± 0.0062	0.00304 ± 0.0019	
UCCUCCUACAGCUACGAUAGUAUUUAGAAA	0.13 ± 0.029	0.000529 ± 0.0094	0.00028 ± 0.01	0.000989 ± 0.0068	
UCCUGCUACUCCUUGCAUAGUAUUUACAAA	0.0669 ± 0.016	0.00117 ± 0.004	0.00174 ± 0.0038		0.000345 ± 0.017
UCCUGGAACAGCUUGCAUAGAUAUUAGUUA	0.0112 ± 0.0053	0.00125 ± 0.0049	0.00137 ± 0.0049	0.000479 ± 0.007	
UCCUGGAACAGCUUGCAUCAGUAUUUAGUUA	0.0151 ± 0.0061	0.00122 ± 0.0047	0.00109 ± 0.0057	0.00207 ± 0.0035	
UCCUGGAUGUCGUUGCAUAUGUAUUUAGUUA	0.000768 ± 0.0088	0.000311 ± 0.013	0.000692 ± 0.014		0.000209 ± 0.035
UCCUGGAUCAGGAAGCAUAGUAUUUAGUUA	0.0634 ± 0.0094	0.00311 ± 0.0023	0.00178 ± 0.0036	0.00253 ± 0.0028	
UCCUGGAUGUCCUUGGAUAGUAUAUAGUUA	0.165 ± 0.035	0.0038 ± 0.0025	0.00074 ± 0.0096	0.000834 ± 0.01	
UCCUCCUACAGCUUGCAUACAUUUUAGUAA	0.00322 ± 0.0047	0.000927 ± 0.0056	0.000819 ± 0.0089		0.000314 ± 0.015
UCCUGGAUGUGCUUGACAUAGUAUUUAGUUA	0.0338 ± 0.009	0.00218 ± 0.0049	0.00166 ± 0.0073	0.0797 ± 0.03	
UCCUGGAUCAGCUUGCAUUCAAUUUAGUUA	0.00304 ± 0.0051	0.0025 ± 0.0027	0.00168 ± 0.004	0.00032 ± 0.0094	
UCCUGGAUGUCGAAGCAUAGUAUUUAGUUC [g2:g16:cont:t1C]	0.0284 ± 0.0076	0.00232 ± 0.0027	0.00124 ± 0.0046	0.000309 ± 0.0092	

A different layout for some results above:
Sequence,"pre-steady-state target cleavage rate [1, 4]","pre-steady-state target cleavage rate [1, 5]",pre-steady-state target cleavage rate [2],"pre-steady-state target cleavage rate [3, 6]","pre-steady-state target cleavage rate [3, 7]"
UCCUGGAUGUGCUUGACAUAGUAUUUAGUUA,0.0338 ± 0.009,0.00218 ± 0.0049,0.00166 ± 0.0073,0.0797 ± 0.03,
UCCUGGAUCAGCUUGCAUUCAAUUUAGUUA,0.00304 ± 0.0051,0.0025 ± 0.0027,0.00168 ± 0.004,0.00032 ± 0.0094,
